According to article PMC4516353:
No constants are given. Whether binding was seen depends on the method and setting. In cells and extracts the contact can be indirect. These calls come from enrichment with a bait or labelling near it, and not all partners need be listed. Tags and fused reporters may be left off the sequences shown.

Target: T1, E2Tag-WBSCR22 (stably expressed in U2OS cells) (human) (UniProt O43709)
T1 sequence: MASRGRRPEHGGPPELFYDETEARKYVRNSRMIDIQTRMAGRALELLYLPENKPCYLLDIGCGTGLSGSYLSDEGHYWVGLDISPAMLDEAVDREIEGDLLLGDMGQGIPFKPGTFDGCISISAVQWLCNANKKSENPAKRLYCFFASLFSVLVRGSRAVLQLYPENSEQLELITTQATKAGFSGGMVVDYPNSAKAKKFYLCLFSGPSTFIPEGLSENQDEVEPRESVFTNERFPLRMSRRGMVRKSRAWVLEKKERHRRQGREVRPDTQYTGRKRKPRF
Assay: affinity purification with mass spectrometry; SILAC-coupled co-immunoprecipitation from U2OS-E2Tag-WBSCR22 (heavy) against U2OS (mock) lysates; protein G beads with anti-E2Tag antibody 5E11, 4°C overnight; IP buffer 10 mM Tris pH 7.5, 100 mM KCl, 2 mM MgCl2, 1 mM DTT, 0.5% NP-40; LC-MS/MS

binding: binds
B1: TRMT112 (endogenous, U2OS cells) (protein, UniProt Q9UI30 1-125)
chain: MKLLTHNLLSSHVRGVGSRGFPLRLQATEVRICPVEFNPNFVARMIPKVEWSAFLEAADNLRLIQVPKGPVEGYEENEEFLRTMHHLLLEVEVIEGTLQCPESGRMFPISRGIPNMLLSEEETES
